Source: patent US5346910A (priority 1992, dated 1994)
At least one structure is not confirmed: it was looked up by name or label, or the drawing left a doubt.

How the values were obtained:
[1] = molecular target: muscarinic cholinergic receptor (rat brain cerebral cortex homogenate); format: binding; settings: 0.25 nM 3H-QNB, 25° C., 120 minutes
[2] = molecular target: high affinity agonist conformation of the muscarinic cholinergic receptor (rat brain cerebral cortex homogenate); assay: [3H]-Cis-methyldioxolane (3H-CD) binding assay (high affinity); settings: 1.0 nM 3H-CD, 25° C., 120 minutes

`O=C1C=CC(=O)N1CC#CCN1CCCC1` [1-[4-(Pyrrolidinyl)-2-butynyl]-1H-pyrrole-2,5-dione] was tested, and the Ki [1] was 0.2 µM and the Ki [2] was 0.029 µM.
